Data taken from PubChem BioAssay AID1918971, deposited by NCATS (2023).

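KMS12BM multiple myeloma cells exposed to library drugs for 48 h, with viability measured as ATP-driven luminescence using CellTiter-Glo. Compounds were tested as a dilution series spanning roughly 0.00003 to 92 µM, mostly topping out near 45.8 µM. The value is the fitted AC50, the concentration giving a half-maximal effect; lower numbers mean greater potency. Calls come from NCATS curve-class scoring: actives score 40–100, inconclusives score 1–39 (weak, poorly fitted, single-point or rising curves), and inactives score zero.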

Values are in nM. Every entry below has the call inconclusive. These entries are mostly ones the record files as inconclusive; other results of the assay are not listed here. Potencies fitted to partial, single-point or poorly fitting curves are rough. Some entries filed as inconclusive have a full curve. The first word of each remark tells which way the curve ran; it can be opposite to the aim of the assay. Activity scores are not listed here.

With Nc1nc(NCCNc2ncc(-n3ccnc3)c(-c3ccc(Cl)cc3Cl)n2)ccc1[N+](=O)[O-] the assay gave Potency 33173 nM (cytotoxic, single point).
With NC(=O)N1c2ccccc2CC(=O)c2ccccc21 the assay gave Potency 13.2 nM (rising, full curve, poor fit).
With O=S(=O)(c1cccc2cnccc12)N1CCCNCC1 the assay gave Potency 83.3 nM (rising, full curve, poor fit).
With NC(=O)c1cccc2cn(-c3ccc([C@@H]4CCCNC4)cc3)nc12 the assay gave Potency 29565 nM (cytotoxic, single point).
With CC(O)(C#Cc1ccc2c(c1)N(c1nc(N)ncc1Cl)CC2)c1nccs1 (stereo not drawn) the assay gave Potency 37221 nM (cytotoxic, single point).
With Cc1c(NC(=O)OC[C@@H]2COCCN2)cn2ncnc(Nc3ccc4c(cnn4Cc4cccc(F)c4)c3)c12 the assay gave Potency 33.2 nM (cytotoxic, full curve, poor fit).
With CS(=O)(=O)c1ccc(-c2cnc(N)c(C(=O)Nc3ccccc3)n2)cc1 the assay gave Potency 10490 nM (rising, partial curve, poor fit).
With Nc1ccn([C@H]2CC[C@@H](CO)O2)c(=O)n1 the assay gave Potency 2.1 nM (rising, full curve, poor fit).
With Cc1ccccc1C(OCCN(C)C)c1ccccc1 (stereo not drawn) the assay gave Potency 10.5 nM (rising, full curve).
With C[C@]12CC[C@H](O)CC1=CC[C@H]1[C@H]3CCC(=O)[C@@]3(C)CC[C@@H]12 the assay gave Potency 8333 nM (cytotoxic, partial curve, poor fit).
With CC1(C)CNc2cc(NC(=O)c3cccnc3NCc3ccncc3)ccc21 the assay gave Potency 18654 nM (cytotoxic, partial curve, poor fit).
With Cc1c(Cn2c(C)nc3c(C(=O)O)cc(N4CCOCC4)cc32)cccc1C(F)(F)F the assay gave Potency 33173 nM (cytotoxic, single point).
With Cc1cnn(C)c1C(=O)Nc1cc(Nc2ccc3c(C=Cc4ccccn4)n[nH]c3c2)ccc1F the assay gave Potency 33173 nM (cytotoxic, single point).
With C=C(C)[C@@H]1CC[C@]2(C(=O)O)CC[C@]3(C)[C@H](CC[C@@H]4[C@@]5(C)CC[C@H](O)C(C)(C)[C@@H]5CC[C@]43C)[C@@H]12 the assay gave Potency 5258 nM (cytotoxic, partial curve, poor fit).
With CC(C)(C)c1nc2c3cc[nH]c(=O)c3c3cc(F)ccc3c2[nH]1 the assay gave Potency 11770 nM (cytotoxic, partial curve, poor fit).
With CCN(CC)CCNC(=O)c1c(C)[nH]c(C=C2C(=O)Nc3ccc(F)cc32)c1C the assay gave Potency 13552 nM (cytotoxic, partial curve, poor fit).
With COC(=O)Nc1nc2ccc(S(=O)c3ccccc3)cc2[nH]1 (stereo not drawn) the assay gave Potency 14817 nM (cytotoxic, partial curve).
With CCN(CC)CCCCNc1ncc2c(n1)N(C)C(=O)N(c1c(Cl)c(OC)cc(OC)c1Cl)C2 the assay gave Potency 26350 nM (cytotoxic, single point).
With CN1CCN(c2c(F)cc3c(=O)c(C(=O)O)cn4c3c2OCN4C)CC1 the assay gave Potency 1.2 nM (cytotoxic, full curve, poor fit).

Some entries from above, unchanged:

Result for CCN(CC)CCNC(=O)c1c(C)[nH]c(C=C2C(=O)Nc3ccc(F)cc32)c1C was Potency 13552 nM (cytotoxic, partial curve, poor fit).
Result for NC(=O)N1c2ccccc2CC(=O)c2ccccc21 was Potency 13.2 nM (rising, full curve, poor fit).